Reference: PubChem BioAssay AID1259254 (NCATS, 2017)
The whole screen tested about 59,000 reagents; below is a random part of them. Of all reagents, about 1,550 (2.6%) were called active. 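G2 share is only a proxy for re-replication; each gene was hit by three separate siRNAs, and active genes were retested.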 A number with no mark means an inactive call. Reagents against one gene are numbered here. Further read-outs or replicates are left out here. Not stated in the record: the amount of reagent.

Purpose: 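Gene knock-downs that lead to re-replication, shown by excess G2 DNA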 (primary screen)
Cells: human HCT116 colorectal cancer cells
Reagents: single siRNA against human genes
Timing: 3 days
Detection: 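Imaged Hoechst DNA stain sorts each cell into a cycle phase by DNA amount; per plate, G2 fraction set to 0% for non-targeting and 100% for GMNN siRNA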
Reading the numbers: G2 robust z-score: higher = more G2 cells, more excess DNA replication
Rule for the call: 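An siRNA counts as active if its G2 robust z-score lies at least 5 MADs above the screen median; here such calls match roughly 38% of GMNN control or more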

PALM #1 → G2 robust z-score: 0.432
PALM #2 → G2 robust z-score: -0.678
PALM #3 → G2 robust z-score: -0.933
MAN2B2 #1 → G2 robust z-score: 3.82
MAN2B2 #2 → G2 robust z-score: 0.718
MAN2B2 #3 → G2 robust z-score: -1.34

The list goes on (2 carried over from the part before).
MAN2B2 #2 → G2 robust z-score: 0.718
MAN2B2 #3 → G2 robust z-score: -1.34
PTBP3 #1 → G2 robust z-score: 0.433
PTBP3 #2 → G2 robust z-score: -0.592
PTBP3 #3 → G2 robust z-score: 1.89
MRPL40 #1 → G2 robust z-score: -0.131
MRPL40 #2 → G2 robust z-score: 0.64
MRPL40 #3 → G2 robust z-score: -0.666
